Experimental data taken from patent US20240132603A1.
Changes are numbered by the printed parent chain. Results are given in words; binding and its absence hold for the method and conditions named. Some results given as binding are weak or reduced against the parent protein; the word gives no strength.

Sequences of proteins named here, by UniProt entry; tags and fusion partners are left off. A change or cut given only in a name is not applied to a line headed by its entry. A line that says so, or that is headed by a name, gives the form on record, which may keep a tag or linker.
cynomolgus monkey CCR8 (G7NYJ2, form named): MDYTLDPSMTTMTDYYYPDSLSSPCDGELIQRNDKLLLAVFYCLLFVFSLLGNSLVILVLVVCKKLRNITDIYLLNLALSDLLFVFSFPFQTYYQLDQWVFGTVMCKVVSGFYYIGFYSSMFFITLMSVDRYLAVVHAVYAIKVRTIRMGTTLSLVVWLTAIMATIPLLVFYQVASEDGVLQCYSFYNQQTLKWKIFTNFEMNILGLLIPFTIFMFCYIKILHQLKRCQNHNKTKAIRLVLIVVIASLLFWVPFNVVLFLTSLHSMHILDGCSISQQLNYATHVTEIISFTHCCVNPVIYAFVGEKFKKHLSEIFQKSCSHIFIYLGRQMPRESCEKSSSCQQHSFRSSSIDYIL

B1: PR004519 (antibody, human IgG1, kappa, V domains shown)
VH: EVQLVESGGGLVKPGGSLRLSCAASGFTFNTYAMNWVRQAPGKGLEWVGRIRSKSNNYATYYADSVKDRFTISRDDSKSTLYLQMNSLKTEDTAVYYCVRGKENGNYYAMDFWGQGTTVTVSS
VL: DIVMTQSPLSLPVTPGEPASISCRSSKSLLHSNGKIYLYWFLQKPGQSPQLLIYRMSNLASGVPDRFSGSGSGTDFTLKISRVEAEDVGVYYCMQHLEYPLTFGQGTKLEIKR
B2: PR004521 (antibody, human IgG1, kappa, V domains shown)
VH: B1 VH with K13Q, R19K, P41S
VL: B1 VL
B3: PR004522 (antibody, human IgG1, kappa, V domains shown)
VH: B1 VH
VL: B1 VL with K35N, I36T
B4: PR004523 (antibody, human IgG1, kappa, V domains shown)
VH: B1 VH with K13Q, G49S, K89R, T90A
VL: B1 VL with K35N, I36T
B5: PR004524 (antibody, human IgG1, kappa, V domains shown)
VH: B1 VH with K13Q, R19K, P41S
VL: B1 VL with K35N, I36T
B6: PR004526 (antibody, human IgG1, kappa, V domains shown)
VH: B1 VH with K13Q, G49S, K89R, T90A
VL: B1 VL with P15L, E17Q, L42Q, K44R, Q50R
B7: PR004527 (antibody, human IgG1, kappa, V domains shown)
VH: B1 VH with K13Q, R19K, P41S
VL: B1 VL with P15L, E17Q, L42Q, K44R, Q50R
B8: PR004660 (antibody, human IgG1, kappa, V domains shown)
VH: B1 VH with K13Q, N30S, G49S, K89R, T90A, G105A
VL: B1 VL
B9: PR004661 (antibody, human IgG1, kappa, V domains shown)
VH: B1 VH with K13Q, N30S, G49S, K89R, T90A, N104Q
VL: B1 VL
B10: PR004662 (antibody, human IgG1, kappa, V domains shown)
VH: B1 VH with K13Q, N30S, G49S, K89R, T90A, G105A
VL: B1 VL with G34A
B11: PR004663 (antibody, human IgG1, kappa, V domains shown)
VH: B1 VH with K13Q, N30S, G49S, K89R, T90A, N104Q
VL: B1 VL with G34A
B12: PR004664 (antibody, human IgG1, kappa, V domains shown)
VH: B1 VH with N30S, G105A
VL: B1 VL with P15L, E17Q, L42Q, K44R, Q50R
B13: PR004665 (antibody, human IgG1, kappa, V domains shown)
VH: B1 VH with N30S, N104Q
VL: B1 VL with P15L, E17Q, L42Q, K44R, Q50R
B14: PR004667 (antibody, human IgG1, kappa, V domains shown)
VH: B1 VH with N30S, N104Q
VL: B1 VL with P15L, E17Q, G34A, L42Q, K44R, Q50R
B15: PR005170 (antibody, human IgG1, kappa, V domains shown)
VH: B1 VH with K13Q, G15K, R19K, G49A, K78Q, T80M, S87N, V95M, T118S, S123A
VL: DIVMTQAAPSVPVTPGESVSISCRSSKSLLHSNGKIYLYWFLQRPGQSPQLLIYRMSNLASGVPDRFSGSGSGTAFTLRISRVEAEDVGVYYCMQHLEYPITFGAGTKLEIKR
B16: PR005171 (antibody, human IgG1, kappa, V domains shown)
VH: B1 VH with K13Q, G15K, R19K, G49A, K78Q, T80M, S87N, V95M, T118S, S123A
VL: B15 VL with I101M
B17: PR005172 (antibody, human IgG1, kappa, V domains shown)
VH: B1 VH with K13Q, G15K, R19K, G49A, K78Q, T80M, S87N, V95M, T118S, S123A
VL: B15 VL with I101V
B18: PR006154 (antibody, human IgG1, kappa, V domains shown)
VH: B1 VH with N30S, N104H
VL: B1 VL with P15L, E17Q, G34A, L42Q, K44R, Q50R
B19: PR006156 (antibody, human IgG1, kappa, V domains shown)
VH: B1 VH with N30S, N104I
VL: B1 VL with P15L, E17Q, G34A, L42Q, K44R, Q50R
B20: PR006157 (antibody, human IgG1, kappa, V domains shown)
VH: B1 VH with N30S, N57Y, N104I
VL: B1 VL with P15L, E17Q, G34A, L42Q, K44R, Q50R
B21: PR006161 (antibody, human IgG1, kappa, V domains shown)
VH: B1 VH with N30S, N57Y, N104H, N106K
VL: B1 VL with P15L, E17Q, G34A, L42Q, K44R, Q50R
B22: PR004324 (antibody, human IgG1, kappa, V domains shown)
VH: B1 VH with K13Q, G15K, R19K, G49A, K78Q, T80M, S87N, V95M, T118S, S123A
VL: B15 VL with G34A, I101L
B23: PR004325 (antibody, human IgG1, kappa, V domains shown)
VH: B1 VH with K13Q, G15K, R19K, G49A, K78Q, T80M, S87N, V95M, T118S, S123A
VL: B15 VL with N33Q, I101L
B24: PR004326 (antibody, human IgG1, kappa, V domains shown)
VH: EVQLVESGGGLVQPKGSLKLSCAASGFTFNTYAMNWVRQAPGKGLEWVARIRSKSNNYATYYADSVKDRFTISRDDSQSMLYLQMNNLKTEDTAMYYCVRGKENANYYAMDFWGQGTSVTVSA
VL: B15 VL with I101L
B25: PR004327 (antibody, human IgG1, kappa, V domains shown)
VH: B24 VH with N30Q, A105G
VL: B15 VL with I101L
B26: PR004328 (antibody, human IgG1, kappa, V domains shown)
VH: B24 VH with N30S, A105G
VL: B15 VL with I101L
B27: PR004329 (antibody, human IgG1, kappa, V domains shown)
VH: B24 VH with N104Q, A105G
VL: B15 VL with I101L
B28: PR004330 (antibody, human IgG1, kappa, V domains shown)
VH: B1 VH
VL: B15 VL with I101L
B29: PR004331 (antibody, human IgG1, kappa, V domains shown)
VH: B1 VH with Y32N
VL: B15 VL with I101L
B30: PR004332 (antibody, human IgG1, kappa, V domains shown)
VH: B1 VH with F112Y
VL: B15 VL with I101L
B31: PR004333 (antibody, human IgG1, kappa, V domains shown)
VH: B1 VH with K13Q, G49S, K89R, T90A
VL: B15 VL with I101L
B32: PR004334 (antibody, human IgG1, kappa, V domains shown)
VH: B1 VH with K13Q, Y32N, G49S, K89R, T90A
VL: B15 VL with I101L
B33: PR004335 (antibody, human IgG1, kappa, V domains shown)
VH: B1 VH with K13Q, G49S, K89R, T90A, F112Y
VL: B15 VL with I101L
B34: PR004336 (antibody, human IgG1, kappa, V domains shown)
VH: B1 VH with K13Q, R19K, P41S
VL: B15 VL with I101L
B35: PR004337 (antibody, human IgG1, kappa, V domains shown)
VH: B1 VH with K13Q, R19K, Y32N, P41S
VL: B15 VL with I101L
B36: PR004338 (antibody, human IgG1, kappa, V domains shown)
VH: B1 VH with K13Q, R19K, P41S, F112Y
VL: B15 VL with I101L
B37: PR004339 (antibody, human IgG1, kappa, V domains shown)
VH: B24 VH with A105G
VL: B1 VL
B38: PR004340 (antibody, human IgG1, kappa, V domains shown)
VH: B24 VH with A105G
VL: B1 VL with K35N, I36T
B39: PR004343 (antibody, human IgG1, kappa, V domains shown)
VH: B24 VH with A105G
VL: B1 VL with P15L, E17Q, L42Q, K44R, Q50R
B40: PR004344 (antibody, human IgG1, kappa, V domains shown)
VH: B24 VH with A105G
VL: B1 VL with P15L, E17Q, K35N, I36T, L42Q, K44R, Q50R
B41: PR004345 (antibody, human IgG1, kappa, V domains shown)
VH: B24 VH with A105G
VL: B1 VL with P15L, E17Q, S26N, K35N, I36T, L42Q, K44R, Q50R

The binders below were run against cynomolgus monkey CCR8 (cynomolgus monkey) (UniProt G7NYJ2) (assay: FACS, CHO-K1-CynoCCR8 cells).

| Binder | binding |
| --- | --- |
| B1 | binds |
| B2 | binds |
| B3 | binds |
| B4 | binds |
| B5 | binds |
| B6 | binds |
| B7 | binds |
| B8 | binds |
| B9 | binds |
| B10 | binds |
| B11 | binds |
| B12 | binds |
| B13 | binds |
| B14 | binds |
| B15 | binds |
| B16 | binds |
| B17 | binds |
| B18 | binds |
| B19 | binds |
| B20 | binds |
| B21 | binds |

The binders below were run against cynomolgus monkey CCR8 (cynomolgus monkey) (UniProt G7NYJ2) (assay: FACS on CHO-K1 cells overexpressing cynomolgus monkey CCR8).

| Binder | binding |
| --- | --- |
| B22 | binds |
| B23 | binds |
| B24 | binds |
| B25 | binds |
| B26 | binds |
| B27 | binds |
| B28 | binds |
| B29 | binds |
| B30 | binds |
| B31 | binds |
| B32 | binds |
| B33 | binds |
| B34 | binds |
| B35 | binds |
| B36 | binds |
| B37 | binds |
| B38 | binds |
| B39 | binds |
| B40 | binds |
| B41 | binds |
| B1 | binds |

| Binder | binding |
| --- | --- |
| B2 | binds |
| B3 | binds |
| B4 | binds |
| B5 | binds |
| B6 | binds |
| B7 | binds |
| B8 | binds |
| B9 | binds |
| B10 | binds |
| B11 | binds |
| B12 | binds |
| B13 | binds |
| B14 | binds |
| B15 | binds |
| B16 | binds |
| B17 | binds |
| B18 | binds |
| B19 | binds |
| B20 | binds |
| B21 | binds |
